Consider 67 sequences from PubChem BioAssay AID1347423 (Functional Genomics Laboratory (NCATS/FGL), 2020).

Among all 52,000 sequences or so, about 210 (0.4%) were called active.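 Rule for the calls: active = gene whose silencing raises cell survival under the drug, median off-target-corrected z-score across its silencing RNAs 2 or more; inactive = the rest.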 The list shows a part of the results.

The assay is described as follows: Resistance to Poly (ADP-Ribose) Polymerase inhibitor: Gene Identification via Genome-wide siRNA Screen. Particulars: mouse BRCA2 R2336H ES cells, olaparib, CellTiter-Glo viability; active compounds read high. The gist of the method:
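Genome-wide siRNA screen (3 siRNAs/gene, 20 nM) in mouse ES cells carrying hypomorphic BRCA2 R2336H; olaparib 500 nM added 48 h post-transfection, CellTiter-Glo viability 72 h later. Normalized to plate-median negative control; MAD z-scores, gene median, seed-adjusted.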
(In general: Cellular ATP, detected with luciferase, serves as a proxy for viable cell number.)
Consider CCCUUCCAACAAUUAUACUTT against Tmem27, for which the z-score was inactive: 1.04. As for GCCAAAUACGUGUAUGACUTT against Sfxn3, the figure is inactive: -0.0616. As to GGAAGUCUGUCCAAGGUAUTT against Olfr192, the z-score was inactive: -0.595. For the sequence “GGUGGUAGCUUUGUACUUUTT against 4930519N16Rik”, the z-score is inactive: -1.35. As for GGUGAGCAAGAACAAAAAGTT against BC051070, the figure is inactive: 1.04.

Turning to GCUGAAAUCCUUAAUCUCGTT against Col6a3, the z-score was inactive: 1.72. In the case of GUGAUGUCACCCACGAAAGTT against Erdr1, the z-score was inactive: -0.327. Next, GGCCACAAGAUACAUAUAUTT against Bmi1: inactive: -1.44; GCCCAUCUAGGAUCUAUAUTT against F9: inactive: -0.689; “CCUUUAAAAGCGUAGGCAUTT against 2210008M09Rik”: inactive: -1.87. As for “GCGAUACAACUCUUAUGACTT against D030011O10Rik”, the figure is inactive: -1.5; as for GGAAGUGUCCAGCAAUUAGTT against Stc2, inactive: -0.35.

For the sequence “GGCAGAUGUGAAAAGUGCATT against 8430432M10Rik”, the z-score was inactive: 0.763. Next, GCUCAGACUAGAUUAAUGUTT against Gmeb2: inactive: -1.12; CCUCAUUUAGAUGUCUUGATT against Ran: inactive: -1.91; GGUGAUUACUCUUAUGUGATT against Slc7a8: inactive: -0.0491. As for “CGUGAAAGAUCAUCUCAGATT against 4933427D14Rik”, the figure is inactive: -0.968; as for “GGUCUCUGUAGAGAUGGCATT against 6820408C15Rik”, inactive: 0.249. With CGAAUGUUGAAUCUUCUUGTT against Cdv1, the z-score is inactive: 0.0507. As for GGCAAAAGUGUGAACAGUUTT against Sftpb, the figure is inactive: -2.25; as for GGAGAAGAAGAAAGAGCGGTT against Gja3, inactive: -0.765. As for GGAUAUACAAGCACAAACUTT against Gje1, the figure is inactive: -1.15. CCUGCUACAAGUAUCUCAATT against Fdft1: the z-score is inactive: 1.25.

CCCUUAGCGACUUUUCUAATT against Eif5b: the z-score is inactive: 0.831.

For the sequence GGAUGUGUUUGUGUGCAUGTT against Recql5, the z-score is inactive: -0.205. Next, GGCAUCUUUACAUUUGUGATT against Sap30: inactive: -0.574; GGAAUUUUAUUCAGAGGCUTT against Fmip: inactive: -0.836; “GCUCAAGUAAUAGAAACUUTT against 2810405J04Rik”: inactive: -0.398.

For the sequence GGAUGAAGACAAUGAUAUUTT against Evi1, the z-score is inactive: -0.186. Consider “GGAACCUAAUUAGCAAAGCTT against 2310007A19Rik”, for which the z-score is inactive: 0.952. As for CAGCUUGUGCUCGAGUAAATT against LOC433762, the figure is inactive: -0.981.

Take GCCAUGUGAGACUCUUAUATT against Slc2a9: the z-score was inactive: 0.554.

Regarding CCUAAUGAUGGCUCUUACUTT against Eltd1, the z-score was inactive: 0.0122.

Turning to CCCACUAAUAGCACUGUCCTT against Olfr746, the z-score was inactive: 0.51. Next, GCGACUCACUAUUUGGGCATT against Ell3: inactive: 0.832; CCUCAAUUGGAUAAAGAAGTT against Gzma: inactive: 0.243. As for “GCUAUCCCUUAAAUGCUCATT against E430002G05Rik”, the z-score is inactive: 0.547.

For the sequence GGGAAAUUAUCGCUUUAUGTT against Invs, the z-score is inactive: 1.71. On to GCUAUUGUGGUAUGGAUUATT against Il2ra, for which the z-score is inactive: 1.78. Next, GGGAGAAGAUCUAAUUCAATT against Cd34: inactive: 1.21; “GGUGCUUUGAAGUUUUUCATT against 9630005B12Rik”: inactive: 0.521. As for GUCCUAAAACGAGUGAGAGTT against Trib3, the figure is inactive: -0.173; as for “GGUCAAGUAUCUGAGAAAATT against 2700094K13Rik”, inactive: -1.58; as for GGAAGAAGCAACCACAUUCTT against Evl, inactive: -1.71. As for GGGAAAGGAGGACAAAGAGTT against Gip, the figure is inactive: -1.49; as for GGGUUCUGUUGACUAACUATT against Hip2, inactive: 1.08. Turning to GGCUUUUCAGCAGGUUUAATT against Ube2g1, the z-score was inactive: -1.69. As for GGAGUUUCAAGAAAAAAGGTT against BC021891, the figure is inactive: 0.462; as for CCUAUUAUAGGACAAAGUATT against Efhc2, inactive: 0.558. On to GGCUUCCAUCCUUUCUUUGTT against Ilf2, for which the z-score was inactive: 0.657.

On to CGUUUUGUACAGAUAUACUTT against ORF9, for which the z-score was inactive: 0.184. For GGAACUGUUAGAAAAUGGATT against Sh2d3c, the z-score was inactive: 0.891.

CCUAACACCAGGAACCAAATT against Upk2: the z-score is inactive: -0.991. Take GGAAAAACAAACCUAGCAUTT against Ets1: the z-score was inactive: 0.971.

In the case of GUAGAGAAGGAAGAGUGCCTT against Fshb, the z-score is inactive: 0.105. Next, CCUACAACGGGAAAACCGATT against BC063749: inactive: 0.528; GCUUAUGUUAAACCAGAGATT against Syt8: inactive: -0.391. As for ACCAGCACGACAGAUGCUATT against Pla2g12a, the figure is inactive: 0.603. As for “GGCUUCCACAUAAAAACGATT against 2410015N17Rik”, the figure is inactive: -0.0731; as for GCAUGAUGAUGGAGACCGATT against Sox1, inactive: -0.796; as for GUGAUUAGCCGAAAGGGCUTT against Olfr1032, inactive: 1.25. Regarding “GCCUUAGGAAAUUCUCAAUTT against C430048L16Rik”, the z-score was inactive: -0.919.

For the sequence GGUCAGAUGCAGUGCAAGATT against Cldn4, the z-score is inactive: -1.02. For the sequence CCGGUAUUGCUGUUCCUGGTT against Agxt, the z-score was inactive: 0.223. As for GGUUAAGAGUAUCGUCAGCTT against Katnal1, the figure is inactive: -0.221; as for “GGUAUUCUUGGUGUUAGAATT against 4933402O15Rik”, inactive: 0.515.

Take GCGAAAACUUCGGAUCUAUTT against Smarcd2: the z-score is inactive: 1.16.
